No constants are given. Whether binding was seen depends on the method and setting. In cells and extracts the contact can be indirect. Some results given as binding are weak or reduced against the parent protein; the word gives no strength. For part of these data: Sequences can lack the tags named with a protein.
Assays:
Assay in all cases: co-IP; tagged proteins co-transfected into HEK293 cells; whole-cell lysates in RIPA buffer (50 mM Tris pH 7.4, 150 mM NaCl, 1% Triton X-100); specific antibodies or pre-immune IgG overnight, Protein A/G-plus Agarose beads; Western blot
GFP-tagged HIF-1α = GFP-tagged HIF-1α (UniProt Q16665)
His-tagged Sp1 = His-tagged Sp1 (UniProt P08047)
Myc-tagged KDM3A = biological target: T1, Myc-tagged KDM3A (UniProt Q9Y4C1)
T1 sequence: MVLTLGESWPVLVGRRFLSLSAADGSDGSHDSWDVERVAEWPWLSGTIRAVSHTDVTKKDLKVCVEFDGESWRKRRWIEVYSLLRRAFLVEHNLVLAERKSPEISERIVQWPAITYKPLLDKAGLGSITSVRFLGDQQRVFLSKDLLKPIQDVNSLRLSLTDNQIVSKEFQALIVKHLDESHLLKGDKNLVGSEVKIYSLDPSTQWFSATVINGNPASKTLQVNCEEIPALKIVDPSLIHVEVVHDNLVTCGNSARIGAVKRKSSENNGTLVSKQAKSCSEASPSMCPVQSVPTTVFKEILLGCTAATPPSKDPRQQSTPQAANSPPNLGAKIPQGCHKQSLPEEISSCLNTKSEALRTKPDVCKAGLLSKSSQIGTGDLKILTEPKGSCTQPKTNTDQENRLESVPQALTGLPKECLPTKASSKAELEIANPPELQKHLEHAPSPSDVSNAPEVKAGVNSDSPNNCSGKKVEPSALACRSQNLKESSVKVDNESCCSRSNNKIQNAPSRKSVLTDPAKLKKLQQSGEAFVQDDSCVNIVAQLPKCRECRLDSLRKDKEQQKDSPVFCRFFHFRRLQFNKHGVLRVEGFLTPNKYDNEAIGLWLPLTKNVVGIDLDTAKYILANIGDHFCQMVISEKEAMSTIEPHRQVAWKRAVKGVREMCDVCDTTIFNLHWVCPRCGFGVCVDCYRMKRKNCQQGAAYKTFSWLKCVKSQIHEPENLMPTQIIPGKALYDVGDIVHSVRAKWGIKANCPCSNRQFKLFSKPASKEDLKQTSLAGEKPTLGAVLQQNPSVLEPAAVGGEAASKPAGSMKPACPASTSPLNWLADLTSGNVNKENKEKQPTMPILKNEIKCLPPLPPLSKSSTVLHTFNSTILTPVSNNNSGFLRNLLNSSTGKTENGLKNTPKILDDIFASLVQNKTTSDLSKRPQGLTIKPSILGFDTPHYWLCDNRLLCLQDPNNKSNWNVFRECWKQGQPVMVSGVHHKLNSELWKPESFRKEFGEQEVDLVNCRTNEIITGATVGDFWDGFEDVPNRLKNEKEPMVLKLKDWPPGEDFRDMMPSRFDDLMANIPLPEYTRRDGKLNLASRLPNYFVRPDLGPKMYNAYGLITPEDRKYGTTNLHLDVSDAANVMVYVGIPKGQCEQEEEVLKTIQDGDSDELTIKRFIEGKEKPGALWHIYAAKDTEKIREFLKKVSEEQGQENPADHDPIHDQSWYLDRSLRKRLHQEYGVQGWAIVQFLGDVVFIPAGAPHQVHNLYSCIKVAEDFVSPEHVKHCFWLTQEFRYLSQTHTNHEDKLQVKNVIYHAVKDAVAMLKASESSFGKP

Amino acid sequences for entries named in this document (tags omitted).
UniProt Q16665: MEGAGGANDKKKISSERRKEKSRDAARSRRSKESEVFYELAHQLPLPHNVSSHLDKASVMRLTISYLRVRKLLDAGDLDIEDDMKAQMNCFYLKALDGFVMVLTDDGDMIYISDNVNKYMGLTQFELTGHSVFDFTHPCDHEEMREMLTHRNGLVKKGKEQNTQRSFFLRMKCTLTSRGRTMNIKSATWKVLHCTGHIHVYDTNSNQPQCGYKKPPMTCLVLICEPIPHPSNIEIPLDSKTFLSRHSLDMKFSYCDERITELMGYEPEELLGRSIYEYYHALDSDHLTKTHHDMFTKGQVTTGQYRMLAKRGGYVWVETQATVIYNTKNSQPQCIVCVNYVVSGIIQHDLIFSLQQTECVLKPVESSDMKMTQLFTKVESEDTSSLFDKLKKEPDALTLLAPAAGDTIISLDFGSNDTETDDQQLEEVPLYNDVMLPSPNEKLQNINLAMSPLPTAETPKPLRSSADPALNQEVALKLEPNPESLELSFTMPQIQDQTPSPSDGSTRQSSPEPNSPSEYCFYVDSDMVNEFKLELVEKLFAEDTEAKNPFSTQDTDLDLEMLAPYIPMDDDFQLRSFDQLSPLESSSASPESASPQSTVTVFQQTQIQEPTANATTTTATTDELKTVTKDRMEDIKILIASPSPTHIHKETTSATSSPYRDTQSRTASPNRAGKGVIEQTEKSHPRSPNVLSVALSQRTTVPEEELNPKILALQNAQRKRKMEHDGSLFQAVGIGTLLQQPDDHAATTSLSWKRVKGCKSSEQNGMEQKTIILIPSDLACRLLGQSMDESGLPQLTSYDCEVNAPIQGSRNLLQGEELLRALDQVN
UniProt P08047: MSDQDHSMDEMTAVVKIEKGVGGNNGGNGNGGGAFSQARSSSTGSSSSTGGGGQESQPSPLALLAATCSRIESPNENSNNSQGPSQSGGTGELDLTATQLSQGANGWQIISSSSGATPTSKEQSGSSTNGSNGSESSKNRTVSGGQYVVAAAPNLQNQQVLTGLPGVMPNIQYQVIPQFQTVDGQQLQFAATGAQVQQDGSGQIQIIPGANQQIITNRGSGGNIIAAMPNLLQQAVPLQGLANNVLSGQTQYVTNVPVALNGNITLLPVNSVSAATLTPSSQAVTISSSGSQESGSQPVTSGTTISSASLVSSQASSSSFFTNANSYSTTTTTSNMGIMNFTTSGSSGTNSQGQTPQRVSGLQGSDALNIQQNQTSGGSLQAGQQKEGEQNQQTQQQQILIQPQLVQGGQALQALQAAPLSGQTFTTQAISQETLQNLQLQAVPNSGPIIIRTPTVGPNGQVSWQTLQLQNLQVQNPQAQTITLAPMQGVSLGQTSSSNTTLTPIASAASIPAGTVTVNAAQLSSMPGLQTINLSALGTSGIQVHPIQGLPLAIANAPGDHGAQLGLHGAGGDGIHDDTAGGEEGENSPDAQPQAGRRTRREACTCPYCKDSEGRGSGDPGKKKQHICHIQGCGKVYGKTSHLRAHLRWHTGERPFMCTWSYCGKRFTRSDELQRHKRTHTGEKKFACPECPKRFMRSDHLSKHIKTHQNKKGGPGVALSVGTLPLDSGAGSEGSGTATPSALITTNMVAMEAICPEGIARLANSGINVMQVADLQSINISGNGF
UniProt P51532: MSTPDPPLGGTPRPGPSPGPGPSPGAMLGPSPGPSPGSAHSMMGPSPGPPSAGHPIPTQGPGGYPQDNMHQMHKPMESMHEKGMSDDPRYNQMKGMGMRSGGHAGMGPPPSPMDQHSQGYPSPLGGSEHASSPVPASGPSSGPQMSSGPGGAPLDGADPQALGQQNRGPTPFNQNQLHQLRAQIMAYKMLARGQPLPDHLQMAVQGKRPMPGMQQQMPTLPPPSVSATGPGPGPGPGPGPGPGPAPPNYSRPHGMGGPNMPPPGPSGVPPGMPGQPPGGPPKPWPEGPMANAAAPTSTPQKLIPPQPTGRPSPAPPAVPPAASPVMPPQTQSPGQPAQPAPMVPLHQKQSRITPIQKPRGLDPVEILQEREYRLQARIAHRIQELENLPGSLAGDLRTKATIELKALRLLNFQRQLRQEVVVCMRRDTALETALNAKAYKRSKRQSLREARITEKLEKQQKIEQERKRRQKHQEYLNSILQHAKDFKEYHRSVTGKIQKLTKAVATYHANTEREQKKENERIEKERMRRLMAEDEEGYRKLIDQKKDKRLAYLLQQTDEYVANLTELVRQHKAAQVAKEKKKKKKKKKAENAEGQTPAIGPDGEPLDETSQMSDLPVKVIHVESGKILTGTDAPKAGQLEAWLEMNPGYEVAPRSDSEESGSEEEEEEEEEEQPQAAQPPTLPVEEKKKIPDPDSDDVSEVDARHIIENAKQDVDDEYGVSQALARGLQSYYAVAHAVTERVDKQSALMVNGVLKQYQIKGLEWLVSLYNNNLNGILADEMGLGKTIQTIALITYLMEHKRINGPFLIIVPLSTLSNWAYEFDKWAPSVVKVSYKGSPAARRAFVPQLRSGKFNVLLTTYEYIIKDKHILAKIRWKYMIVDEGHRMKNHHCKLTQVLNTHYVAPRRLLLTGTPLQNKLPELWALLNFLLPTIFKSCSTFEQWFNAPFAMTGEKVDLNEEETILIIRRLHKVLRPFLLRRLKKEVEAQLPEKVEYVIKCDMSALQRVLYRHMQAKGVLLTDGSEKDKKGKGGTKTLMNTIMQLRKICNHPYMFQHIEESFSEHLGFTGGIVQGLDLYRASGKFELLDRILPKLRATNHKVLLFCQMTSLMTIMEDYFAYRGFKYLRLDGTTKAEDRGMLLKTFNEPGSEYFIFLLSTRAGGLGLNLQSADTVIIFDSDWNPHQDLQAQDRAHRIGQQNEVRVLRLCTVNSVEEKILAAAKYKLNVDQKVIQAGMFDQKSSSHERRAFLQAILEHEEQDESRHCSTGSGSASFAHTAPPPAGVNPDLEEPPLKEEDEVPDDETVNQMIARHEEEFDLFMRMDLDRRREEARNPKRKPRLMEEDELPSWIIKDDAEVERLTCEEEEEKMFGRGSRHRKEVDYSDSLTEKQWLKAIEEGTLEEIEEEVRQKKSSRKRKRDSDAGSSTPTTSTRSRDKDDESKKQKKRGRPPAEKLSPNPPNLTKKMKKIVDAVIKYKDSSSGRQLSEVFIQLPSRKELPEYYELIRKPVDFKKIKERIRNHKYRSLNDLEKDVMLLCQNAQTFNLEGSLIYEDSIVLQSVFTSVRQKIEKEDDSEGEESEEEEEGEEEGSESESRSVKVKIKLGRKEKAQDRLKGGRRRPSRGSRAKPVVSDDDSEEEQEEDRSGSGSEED

Measured: binding

HA-tagged BRG1 (Brahma related gene 1) (from UniProt P51532 1-1647)
binds: GFP-tagged HIF-1α | His-tagged Sp1 | Myc-tagged KDM3A

Source: article PMC6834663
